These are yes or no findings as the source states them, for the method shown. In cells and extracts the contact can be indirect. Some entries that bind do so weakly or less than the wild type.
Molecular target: TIRC7 protein from activated human peripheral blood lymphocyte lysate (human) (UniProt Q13488)
Assay: co-immunoprecipitation from human lymphocyte lysate with anti-TIRC7 and anti-HLA-DR alpha chain antibodies

Amino acid sequences for entries named in this document (tags omitted). A change or cut given only in a name is not applied to a line headed by its entry. Residues count along the entry.
UniProt Q13488, residues 217-830: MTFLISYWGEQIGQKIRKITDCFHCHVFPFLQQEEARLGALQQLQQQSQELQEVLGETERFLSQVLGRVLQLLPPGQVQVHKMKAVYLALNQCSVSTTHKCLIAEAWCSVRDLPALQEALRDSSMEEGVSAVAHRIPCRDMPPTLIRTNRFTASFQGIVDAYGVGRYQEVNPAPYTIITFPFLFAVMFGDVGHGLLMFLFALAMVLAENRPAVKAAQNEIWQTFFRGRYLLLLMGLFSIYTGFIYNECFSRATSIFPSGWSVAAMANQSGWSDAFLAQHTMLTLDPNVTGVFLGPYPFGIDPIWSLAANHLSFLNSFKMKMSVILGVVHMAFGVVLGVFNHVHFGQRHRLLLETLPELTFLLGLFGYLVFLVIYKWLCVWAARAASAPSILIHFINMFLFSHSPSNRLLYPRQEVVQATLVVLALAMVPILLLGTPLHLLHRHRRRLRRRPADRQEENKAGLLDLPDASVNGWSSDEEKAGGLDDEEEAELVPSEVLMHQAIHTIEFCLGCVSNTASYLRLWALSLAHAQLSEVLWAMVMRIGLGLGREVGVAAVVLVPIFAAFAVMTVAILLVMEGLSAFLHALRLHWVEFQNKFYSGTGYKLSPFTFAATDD
UniProt P01903: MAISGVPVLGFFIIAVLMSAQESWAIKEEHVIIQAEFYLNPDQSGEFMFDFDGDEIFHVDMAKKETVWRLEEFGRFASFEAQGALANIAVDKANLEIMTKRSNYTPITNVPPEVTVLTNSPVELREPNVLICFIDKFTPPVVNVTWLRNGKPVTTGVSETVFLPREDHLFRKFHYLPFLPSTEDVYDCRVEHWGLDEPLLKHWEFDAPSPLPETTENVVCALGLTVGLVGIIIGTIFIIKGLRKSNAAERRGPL

binding: binds
Substance: HLA-DR alpha chain from activated human peripheral blood lymphocyte lysate (from UniProt P01903 26-254) (ligand)
